Source: paper PMC5374619, “The synthetic peptide CIGB-300 modulates CK2-dependent signaling pathways affecting the survival and chemoresistance of non-small cell lung cancer cell lines” (Cancer Cell International, 2017)
pIC50: −log10 of the molar value.

System: A549 cells
Experiment: Cell viability, MTS assay, monolayer
Type: cell-based, human
Details: 72 h treatment, R package ic50
Protocol: We used two human non-small cell lung cancer (NSCLC) derived cell lines: the adenosquamous cell carcinoma NCI-H125 (CRL-5801) and the adenocarcinoma NIH-A549 (CCL-185). The murine L Wnt-3A cell line (CRL-2647) was used in order to produce conditioned media (CM) containing the wnt3a factor, following ATCC’s instructions. All cell lines were obtained from ATCC. H125 was grown in RPMI medium supplemented with 10% FBS and 80 µg/ml gentamycin. A549 and L cells were grown in DMEM media, with the above mentioned supplementation. All cell lines were cultured at 37 °C in a humidified air atmosphere with 5% CO2.
To assess the effect of CIGB-300 or cisplatin on cell viability, 1 × 10^4 cells/well were seeded into 96 well plates in standard culture conditions. […] Cell proliferation was evaluated after 72 h using the MTS assay (Celltiter 96TM Non Radioactive Proliferation Assay, Promega), as described by the manufacturer. Data were analyzed using the R package “ic50” [33] in order to determine the IC50 values for each drug. Alternatively, proliferative potential was determined by assessing cell number. Briefly, cells were seeded onto 35 mm Petri dishes, treated and after 72 h wells were washed twice with PBS, trypsinized, centrifuged, resuspended in a proper volume and finally counted using an hemocytometer and trypan blue exclusion. […] The percentage of dead cells was determined for each cell line.

Q: With `N.N.[Cl][Pt][Cl]` [cisplatin, cisdiammine-dichloro-platinum, reference compound] as the molecule, how does the pIC50 read?
A: The pIC50 was 5.30.
